Experimental data: PubChem BioAssay AID1224830 (NIAID, 2016)

Aim: 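Genes whose knock-down alters the TNF-alpha reporter response to LPS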 (primary screen)
Cells: human THP-1 monocytic leukaemia cells, TNF dual-luciferase reporter clone, PMA-differentiated to macrophage-like cells
Knock-down reagent: siRNA pool against human genes, 50 nM
Duration: LPS for 4 h, given about 3 days after siRNA transfection
Conditions: bacterial LPS (TLR4 ligand), 10 ng/ml
Read-out: 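TNF firefly reporter luminescence divided by renilla, normalised to the plate median, then turned into a robust z-score for each replicate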
Scale: TNF reporter robust z-score: higher = stronger TNF reporter response to LPS
Active means: 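Each well counts as active if its z-score is over 2.8 or under -1.5; controls are left without a call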
Shown is an unselected part of about 18,000 reagents tested. Of all reagents, about 2,900 (16%) got an active call. 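Calls are made per well; low scores hint the gene aids the LPS response, high scores that it dampens it.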 Unmarked entries are inactive. Repeated entries: four replicate wells of each siRNA pool.

For SPATC1L the deposit lists TNF reporter robust z-score -0.9. Depletion of SPATC1L resulted in: TNF reporter robust z-score -0.14. For SPATC1L, the values are TNF reporter robust z-score 0.55. After knock-down of SPATC1L, the screen gave TNF reporter robust z-score -0.65. Against MAGEA9B, the entry reads TNF reporter robust z-score 0.21. For MAGEA9B the deposit lists TNF reporter robust z-score 0.63.

With knock-down of MAGEA9B, the screen gave TNF reporter robust z-score 0.96. MAGEA9B scored TNF reporter robust z-score 0.36. OR2AK2 showed TNF reporter robust z-score -1.17. With knock-down of OR2AK2, the record shows TNF reporter robust z-score -1.01. OR2AK2 gave TNF reporter robust z-score -1.44. With knock-down of OR2AK2 the results were TNF reporter robust z-score -0.68.

SELENOV scored TNF reporter robust z-score -0.1. Depletion of SELENOV came out at: TNF reporter robust z-score -0.45. Depletion of SELENOV gave: TNF reporter robust z-score -0.81. After knock-down of SELENOV, the screen gave TNF reporter robust z-score -0.25. After knock-down of SSTR4, the screen gave TNF reporter robust z-score -1. With knock-down of SSTR4 the results were TNF reporter robust z-score -0.87.

Silencing of SSTR4 resulted in: TNF reporter robust z-score -1.11.

Quoted from above (5 entries):
MAGEA9B: TNF reporter robust z-score = 0.96
MAGEA9B: TNF reporter robust z-score = 0.36
OR2AK2: TNF reporter robust z-score = -1.17
OR2AK2: TNF reporter robust z-score = -1.01
OR2AK2: TNF reporter robust z-score = -1.44

The list goes on.
CES5A scored TNF reporter robust z-score -0.76. Against CES5A, the entry reads TNF reporter robust z-score 0.02. Silencing of CES5A gave: TNF reporter robust z-score 0.21. After knock-down of CES5A, the screen gave TNF reporter robust z-score -0.15. Against STC2, the entry reads TNF reporter robust z-score 0.71. Knock-down of STC2 gave: TNF reporter robust z-score 1.21.

Against STC2, the values are TNF reporter robust z-score 0.85. STC2 showed TNF reporter robust z-score 0.57. With knock-down of RELT, the screen gave TNF reporter robust z-score 3.77 (active). Against RELT the deposit lists TNF reporter robust z-score 2.65. For RELT, the values are TNF reporter robust z-score 4.31 (active). Silencing of RELT came out at: TNF reporter robust z-score 2.78.

SLC9D1 showed TNF reporter robust z-score -0.32. For SLC9D1 the deposit lists TNF reporter robust z-score -0.67. SLC9D1 scored TNF reporter robust z-score -0.68. After knock-down of SLC9D1, the record shows TNF reporter robust z-score -0.86.
